Consider 2 substances from article PMC12280010.

Sequences of proteins named here, by UniProt entry; tags and fusion partners are left off.
UniProt P55884: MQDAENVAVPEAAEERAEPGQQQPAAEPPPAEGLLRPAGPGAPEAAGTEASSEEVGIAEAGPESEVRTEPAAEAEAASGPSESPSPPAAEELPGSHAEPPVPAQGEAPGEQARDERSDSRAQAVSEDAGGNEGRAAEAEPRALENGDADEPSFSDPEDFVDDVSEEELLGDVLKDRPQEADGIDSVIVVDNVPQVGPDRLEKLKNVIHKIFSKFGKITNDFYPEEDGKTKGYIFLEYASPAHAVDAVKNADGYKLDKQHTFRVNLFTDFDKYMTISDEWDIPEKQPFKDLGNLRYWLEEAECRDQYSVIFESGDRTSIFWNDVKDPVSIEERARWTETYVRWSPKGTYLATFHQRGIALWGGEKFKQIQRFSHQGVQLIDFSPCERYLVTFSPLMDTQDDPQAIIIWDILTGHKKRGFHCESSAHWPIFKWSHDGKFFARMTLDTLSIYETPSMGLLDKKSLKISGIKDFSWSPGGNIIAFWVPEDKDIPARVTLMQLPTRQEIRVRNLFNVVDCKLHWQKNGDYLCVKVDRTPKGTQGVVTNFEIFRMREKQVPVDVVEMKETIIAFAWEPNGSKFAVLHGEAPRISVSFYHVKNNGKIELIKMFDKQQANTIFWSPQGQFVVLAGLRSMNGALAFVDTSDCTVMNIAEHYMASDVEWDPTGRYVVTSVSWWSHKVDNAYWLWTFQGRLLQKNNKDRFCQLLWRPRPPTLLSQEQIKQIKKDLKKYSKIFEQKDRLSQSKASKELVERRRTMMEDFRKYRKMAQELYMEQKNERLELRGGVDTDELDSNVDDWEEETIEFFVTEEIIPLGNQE
UniProt P40337: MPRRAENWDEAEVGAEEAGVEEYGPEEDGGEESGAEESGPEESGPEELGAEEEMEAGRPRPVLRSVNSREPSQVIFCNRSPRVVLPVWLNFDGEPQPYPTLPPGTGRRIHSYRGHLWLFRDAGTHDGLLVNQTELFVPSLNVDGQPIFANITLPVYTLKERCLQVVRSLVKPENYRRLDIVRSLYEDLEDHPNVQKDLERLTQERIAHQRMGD

In the assay the target is MAP2K2 (human (endogenous in AMC-HN-8 and TU212)) (UniProt P36507). The assay can be described thus: co-IP; endogenous proteins in RIPA lysates of AMC-HN-8 and Tu212 cells; incubated overnight with anti-MAP2K2 or anti-VHL antibody (IgG as control), then beads; Western blot. A general note: Immunoblotting shows a protein as a band on a membrane.

These are yes or no findings as the source states them, for the method shown. In cells and extracts the contact can be indirect. Some binding calls cover weakened binding; strength is not graded here.

Consider “eukaryotic translation initiation factor 3 subunit B (from UniProt P55884 1-814)”, for which the binding result is reported as “binds”. Then “von Hippel-Lindau (VHL) (from UniProt P40337 1-213)”, with “binds”.
